# B1: WFDC12 (protein, UniProt Q8WWY7 24-111, looked up)
# WAP four-disulfide core …: VKEGIEKAGVCPADNVRCFKSDPPQCHTDQDCLGERKCCYLHCGFKCVIPVKELEEGGNKDEDVSRPYPEPGWEAKCPGSSSTRCPQK
# B2: EHD4 (protein, UniProt Q9H223 1-541, looked up)
# EH domain-containing protein 4: MFSWMGRQAGGRERAGGADAVQTVTGGLRSLYLRKVLPLEEAYRFHEFHSPALEDADFENKPMILLVGQYSTGKTTFIRYLLEQDFPGMRIGPEPTTDSFIAVMYGETEGSTPGNALVVDPKKPFRKLSRFGNAFLNRFMCSQLPNQVLKSISVIDSPGILSGEKQRISRGYDFCQVLQWFAERVDRIILLFDAHKLDISDEFSEAIKAFRGQDDKIRVVLNKADQVDTQQLMRVYGALMWSLGKVINTPEVLRVYIGSFWAQPLQNTDNRRLFEAEAQDLFRDIQSLPQKAAVRKLNDLIKRARLAKVHAYIISYLKKEMPSVFGKENKKRELISRLPEIYIQLQREYQISAGDFPEVKAMQEQLENYDFTKFHSLKPKLIEAVDNMLSNKISPLMNLISQEETSTPTQLVQGGAFDGTTEGPFNQGYGEGAKEGADEEEWVVAKDKPVYDELFYTLSPINGKISGVNAKKEMVTSKLPNSVLGKIWKLADCDCDGMLDEEEFALAKHLIKIKLDGYELPSSLPPHLVPPSHRKSLPKAD
# B3: PRPSAP2 (protein, UniProt O60256 1-369, looked up)
# Phosphoribosyl pyrophosphate …: MFCVTPPELETKMNITKGGLVLFSANSNSSCMELSKKIAERLGVEMGKVQVYQEPNRETRVQIQESVRGKDVFIIQTVSKDVNTTIMELLIMVYACKTSCAKSIIGVIPYFPYSKQCKMRKRGSIVSKLLASMMCKAGLTHLITMDLHQKEIQGFFNIPVDNLRASPFLLQYIQEEIPDYRNAVIVAKSPASAKRAQSFAERLRLGIAVIHGEAQDAESDLVDGRHSPPMVRSVAAIHPSLEIPMLIPKEKPPITVVGDVGGRIAIIVDDIIDDVDSFLAAAETLKERGAYKIFVMATHGLLSSDAPRRIEESAIDEVVVTNTIPHEVQKLQCPKIKTVDISMILSEAIRRIHNGESMSYLFRNIGLDD
# B4: LRRC59 (protein, UniProt Q96AG4 1-307, looked up)
# Leucine-rich …: MTKAGSKGGNLRDKLDGNELDLSLSDLNEVPVKELAALPKATILDLSCNKLTTLPSDFCGLTHLVKLDLSKNKLQQLPADFGRLVNLQHLDLLNNKLVTLPVSFAQLKNLKWLDLKDNPLDPVLAKVAGDCLDEKQCKQCANKVLQHMKAVQADQERERQRRLEVEREAEKKREAKQRAKEAQERELRKREKAEEKERRRKEYDALKAAKREQEKKPKKEANQAPKSKSGSRPRKPPPRKHTRSWAVLKLLLLLLLFGVAGGLVACRVTELQQQPLCTSVNTIYDNAVQGLRRHEILQWVLQTDSQQ
# B5: PITPNB (protein, UniProt P48739 1-271, looked up)
# Phosphatidylinositol transfer …: MVLIKEFRVVLPCSVQEYQVGQLYSVAEASKNETGGGEGIEVLKNEPYEKDGEKGQYTHKIYHLKSKVPAFVRMIAPEGSLVFHEKAWNAYPYCRTIVTNEYMKDDFFIKIETWHKPDLGTLENVHGLDPNTWKTVEIVHIDIADRSQVEPADYKADEDPALFQSVKTKRGPLGPNWKKELANSPDCPQMCAYKLVTIKFKWWGLQSKVENFIQKQEKRIFTNFHRQLFCWIDKWIDLTMEDIRRMEDETQKELETMRKRGSVRGTSAADV
# B6: SLC2A1 (protein, UniProt P11166 1-492, looked up)
# Solute carrier family 2, …: MEPSSKKLTGRLMLAVGGAVLGSLQFGYNTGVINAPQKVIEEFYNQTWVHRYGESILPTTLTTLWSLSVAIFSVGGMIGSFSVGLFVNRFGRRNSMLMMNLLAFVSAVLMGFSKLGKSFEMLILGRFIIGVYCGLTTGFVPMYVGEVSPTALRGALGTLHQLGIVVGILIAQVFGLDSIMGNKDLWPLLLSIIFIPALLQCIVLPFCPESPRFLLINRNEENRAKSVLKKLRGTADVTHDLQEMKEESRQMMREKKVTILELFRSPAYRQPILIAVVLQLSQQLSGINAVFYYSTSIFEKAGVQQPVYATIGSGIVNTAFTVVSLFVVERAGRRTLHLIGLAGMAGCAILMTIALALLEQLPWMSYLSIVAIFGFVAFFEVGPGPIPWFIVAELFSQGPRPAAIAVAGFSNWTSNFIVGMCFQYVEQLCGPYVFIIFTVLLVLFFIFTYFKVPETKGRTFDEIASGFRQGGASQSDKTPEELFHPLGADSQV
# B7: FAM131C (protein, UniProt Q96AQ9 1-280, looked up)
# Protein FAM131C: MGSCVSRDLFTSAHKNCPMPQGADPLNPDLPSGRTPTVAPDCVIGKDKQMDFCWDPWQRCFQTTNGYLSDSRSRPGNYNVAALATSSLVGVVQSIKDHITKPTAMARGRVAHLIEWKGWSAQPAGWELSPAEDEHYCCLPDELREARFAAGVAEQFAITEATLSAWSSLDEEELHPENSPQGIVQLQDLESIYLQDSLPSGPSQDDSLQAFSSPSPSPDSCPSPEEPPSTAGIPQPPSPELQHRRRLPGAQGPEGGTHPPGSLPSMDSGSLWEEDEVFYN
# B8: LORICRIN (protein, UniProt P23490 1-312, looked up)
# Loricrin: MSYQKKQPTPQPPVDCVKTSGGGGGGGGSGGGGCGFFGGGGSGGGSSGSGCGYSGGGGYSGGGCGGGSSGGGGGGGIGGCGGGSGGSVKYSGGGGSSGGGSGCFSSGGGGSGCFSSGGGGSSGGGSGCFSSGGGGSSGGGSGCFSSGGGGFSGQAVQCQSYGGVSSGGSSGGGSGCFSSGGGGGSVCGYSGGGSGCGGGSSGGSGSGYVSSQQVTQTSCAPQPSYGGGSSGGGGSGGSGCFSSGGGGGSSGCGGGSSGIGSGCIISGGGSVCGGGSSGGGGGGSSVGGSGSGKGVPICHQTQQKQAPTWPSK
# B9: PLEK (protein, UniProt P08567 1-350, looked up)
# Pleckstrin: MEPKRIREGYLVKKGSVFNTWKPMWVVLLEDGIEFYKKKSDNSPKGMIPLKGSTLTSPCQDFGKRMFVFKITTTKQQDHFFQAAFLEERDAWVRDIKKAIKCIEGGQKFARKSTRRSIRLPETIDLGALYLSMKDTEKGIKELNLEKDKKIFNHCFTGNCVIDWLVSNQSVRNRQEGLMIASSLLNEGYLQPAGDMSKSAVDGTAENPFLDNPDAFYYFPDSGFFCEENSSDDDVILKEEFRGVIIKQGCLLKQGHRRKNWKVRKFILREDPAYLHYYDPAGAEDPLGAIHLRGCVVTSVESNSNGRKSEEENLFEIITADEVHYFLQAATPKERTEWIRAIQMASRTGK
# B10: LYPLA1 (protein, UniProt O75608 1-230, looked up)
# Acyl-protein thioesterase 1: MCGNNMSTPLPAIVPAARKATAAVIFLHGLGDTGHGWAEAFAGIRSSHIKYICPHAPVRPVTLNMNVAMPSWFDIIGLSPDSQEDESGIKQAAENIKALIDQEVKNGIPSNRIILGGFSQGGALSLYTALTTQQKLAGVTALSCWLPLRASFPQGPIGGANRDISILQCHGDCDPLVPLMFGSLTVEKLKTLVNPANVTFKTYEGMMHSSCQQEMMDVKQFIDKLLPPID
# B11: LMNB2 (protein, UniProt Q03252 1-617, looked up)
# Lamin-B2: MSPPSPGRRREQRRPRAAATMATPLPGRAGGPATPLSPTRLSRLQEKEELRELNDRLAHYIDRVRALELENDRLLLKISEKEEVTTREVSGIKALYESELADARRVLDETARERARLQIEIGKLRAELDEVNKSAKKREGELTVAQGRVKDLESLFHRSEVELAAALSDKRGLESDVAELRAQLAKAEDGHAVAKKQLEKETLMRVDLENRCQSLQEELDFRKSVFEEEVRETRRRHERRLVEVDSSRQQEYDFKMAQALEELRSQHDEQVRLYKLELEQTYQAKLDSAKLSSDQNDKAASAAREELKEARMRLESLSYQLSGLQKQASAAEDRIRELEEAMAGERDKFRKMLDAKEQEMTEMRDVMQQQLAEYQELLDVKLALDMEINAYRKLLEGEEERLKLSPSPSSRVTVSRATSSSSGSLSATGRLGRSKRKRLEVEEPLGSGPSVLGTGTGGSGGFHLAQQASASGSVSIEEIDLEGKFVQLKNNSDKDQSLGNWRIKRQVLEGEEIAYKFTPKYILRAGQMVTVWAAGAGVAHSPPSTLVWKGQSSWGTGESFRTVLVNADGEEVAMRTVKKSSVMRENENGEEEEEEAEFGEEDLFHQQGDPRTTSRGC
# Test system: DYT1 patient plasma derived EVs
# Assay: Plasma-derived EV proteomics (ExoQuick ULTRA, DIA LC/MS/MS), DYT1 vs Healthy Controls
# Parameters: species or system human
# Conditions: DYT1 patients as compared to healthy controls
# Description: Data was obtained for extracellular vesicles using previously acquired samples. The ExoQuick® ULTRA EV Isolation System was used to fractionate and enrich EVs from plasma. Isolated plasma EV samples were then submitted to proteomic analysis by the Duke Proteomics and Metabolomics Core Facility (DPMCF). At the DPMCF, quantitative (LC/MS/MS) was performed on 500 ng of each sample, using an EvoSep One UPLC system coupled to a Thermo Orbitrap Astral high-resolution accurate mass tandem mass spectrometer (Thermo). Briefly, the sample was eluted directly from an Evotip which was subjected to a low organic wash and then subjected to an analytical separation using a 1.7 μm EvoSep 150 um ID×15 cm endurance (EveoSep) column running an SPD30 gradient from approximately 5 to 30% acetonitrile with 0.1% formic acid with a column temperature of 50 C. Data collection on the Orbitrap Astral mass spectrometer was performed in a data-independent acquisition (DIA) mode of acquisition with a r=240,000 (@m/z 200) full MS scan from m/z 380-980 with a target AGC value of 4e5 ions. Fixed DIA, windows of 4 m/z from m/z 380 to 980 DIA MS/MS scans were acquired in the Astral with a target AGC value of 5e4 and a max fill time of 6 ms. HCD collision energy setting of 27% was used for all MS2 scans.
row,Molecule,Log2FC
1,B1,−1.5491
2,B2,−2.1126

# Same assay, conditions: Hs. Plasma EVs (DYT1/WT)
row,Molecule,Directionality
1,B3,DOWN
2,B4,DOWN
3,B2,DOWN
4,B5,DOWN

# Same assay, conditions: Hs. Plasma EVs (DYT1/WT); protein level, human patient derived EVs by genotype
row,Molecule,Log2_FC
1,B6,1.076
2,B3,-1.105
3,B4,-0.8011
4,B2,-2.113
5,B5,-1.064

# Same assay, conditions: directionality of protein change, human plasma derived EVs, DYT1 vs WT(HC)
row,Molecule,Hs. Plasma EVs (DYT1/WT)
1,B3,DOWN
2,B4,DOWN
3,B2,DOWN
4,B5,DOWN

# Same assay, conditions: protein abundance, DYT1 patients
row,Molecule,Mean DYT1
1,B7,4.777
2,B8,6.295
3,B1,4.356
4,B6,7.183
5,B3,2.595
6,B9,6.963
7,B4,1.966
8,B2,8.194
9,B5,4.149
10,B10,8.175
11,B11,3.328

# Same assay, conditions: protein abundance, healthy controls (HC)
row,Molecule,Mean HC
1,B7,2.56
2,B8,7.19
3,B1,5.90
4,B6,6.11
5,B3,3.70
6,B9,5.76
7,B4,2.77
8,B2,10.31
9,B5,5.21
10,B10,9.55
11,B11,4.13

# Source: patent US20260266848A1, “COMPOSITIONS AND METHODS FOR DIAGNOSING AND TREATING DYSTONIA” (Duke University, priority 2023, published 2026)
